# According to article PMC5996148:
# Values joined by “and” are separate entries in the source; they are usually repeats but may differ in a detail not shown here. Identical values can stand only once. Some of the results follow. For some of these results: Construct or isoform of the protein are uncertain.
# What was measured:
# Assay in all cases: protein microarray (ProtoArray v5.0), streptavidin-Alexa Fluor 647
# Conditions in all cases: 3'-biotin; 20 mM Tris (pH 7.5), 5 mM MgCl2, 100 mM KCl, 0.1% Tween-20, A/T-rich and random oligonucleotide blockers; temperature not stated; high values mean tight binding
# [1] = tested on: ISG20 (human)
# [2] = tested on: ISGF3G (human)
# [3] = tested on: ITGB1BP3 (human)
# [4] = tested on: ITM2A (human)
# [5] = molecular target: ITM2B (UniProt Q9Y287)
# [6] = tested on: ITPA (human)
# [7] = tested on: IZUMO1 (human)
# [8] = tested on: Ig gamma-1 chain C region (human)
# [9] = tested on: Ig lambda chain C regions (human)
# [10] = tested on: Immunoglobulin iota chain (human)
sequence,measurement,setting,value
GGGAGGCTGAGGCAGG [G4-1 biotinylated (PQS2)],binding signal,[1],-0.299 z-score
same,binding signal,[2],-0.343 z-score
same,binding signal,[3],-0.323 z-score
same,binding signal,[4],-0.318 z-score
same,binding signal,[5],-0.308 z-score
same,binding signal,[6],-0.301 z-score
same,binding signal,[7],-0.302 z-score
same,binding signal,[8],-0.273 z-score and -0.317 z-score and -0.302 z-score
same,binding signal,[9],-0.329 z-score
same,binding signal,[10],-0.281 z-score
